Assay results taken from PubChem BioAssay AID602441 (National Center for Advancing Translational Sciences (NCATS), 2012).
Fewer than 10 of roughly 1,300 compounds were called active. Another 9% or so got no clear call; they are omitted. Calls follow the shape of the dose curve; as a rule, active = well fitted curve in the direction sought with a large enough effect; inconclusive = small, poorly fitted or top-dose-only effect, or another doubt; inactive = no such curve, though single readings can be large or run the other way. The list shows a part of the results.

test: qHTS for antagonists of the Thyroid Stimulation Hormone Receptor: Hit Validation in Parental Cell Line; settings: parental HEK293 cells lacking TSHR, counter-screen; series mostly up to 56.9 µM; activity change, negative = inhibition: at the top concentration; also: 0% is about no effect
Procedure, shortened: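 Counterscreen in untransfected parental HEK-EM 293 cells. Lysate cAMP displaces cAMP-d2 from cryptate-tagged anti-cAMP antibody, and homogeneous TR-FRET is read at 665 nm with 337 nm excitation after stimulation.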

For `CCOc1cc(N2CCOCC2)c(OCC)cc1NC(=O)c1cccc(S(=O)(=O)N2CCOCC2)c1`, which “activity change, negative = inhibition” value is on record?
Its value is inactive: -1.44%.

Which “activity change, negative = inhibition” value does the source give for `O=C(O)c1ccccc1NS(=O)(=O)c1cccc(-n2sc3ccccc3c2=O)c1` here?
The value was inactive: -0.303%.

Which “activity change, negative = inhibition” value does the source give for `O=S(=O)(c1cc(C(F)(F)F)ccc1Cl)N1CCN(c2ncnc3ccccc23)CC1` here?
Its value is inactive: 0.583%.

For `Cc1ccc(S(=O)(=O)N2CCOCC2)cc1N/N=C(\C#N)c1nc2ccccc2[nH]1`, which “activity change, negative = inhibition” value is on record?
The value was inactive: -3.67%.

With `O=C(Nc1cccc(Cl)c1)Nc1nnc(-c2ccncc2)s1` as the compound, how does the “activity change, negative = inhibition” value read?
The value was inactive: -4.39%.

Which “activity change, negative = inhibition” value does the source give for `COCC(C)NC(=O)C1c2ccccc2Oc2ccccc21` (configuration not stated) here?
Its value is inactive: 3.44%.

For `O=C(Nc1nc(-c2ccc(S(=O)(=O)N3CCCCCC3)cc2)cs1)c1ccccc1`, which “activity change, negative = inhibition” value is on record?
The value was inactive: -3.18%.

Which “activity change, negative = inhibition” value does the source give for `COCCCn1c(=O)c2sccc2n(Cc2cccc(C)c2)c1=O` here?
The value was inactive: 3.03%.

With `Cc1cc(OCc2cc(C(=O)N(C)C(C)c3ccccn3)no2)cc(C)c1Cl` (configuration not stated) as the compound, how does the “activity change, negative = inhibition” value read?
The value was inactive: -8.07%.

Which “activity change, negative = inhibition” value does the source give for `Clc1ccc(CSc2nnc(CNc3cccc(Cl)c3)o2)cc1` here?
The value was inactive: -0.379%.

Which “activity change, negative = inhibition” value does the source give for `COc1ccccc1C(=O)Nc1nnc(SCC(=O)NC2CCCC2)s1` here?
The value was inactive: 1.5%.

For `Cn1nnnc1SCC1=C(C(=O)O)N2C(=O)C(NC(=O)C3CC3c3ccccc3)C2SC1` (configuration not stated), which “activity change, negative = inhibition” value is on record?
The value was inactive: 0.338%.

For `Cc1ccc(C(=O)c2c(NC(=O)c3ccccc3)sc(C)c2C)cc1`, which “activity change, negative = inhibition” value is on record?
The value was inactive: 1.03%.

With `S=C(Nc1ccc(Oc2ccccc2)cc1)NC1CCCCCC1` as the compound, how does the “activity change, negative = inhibition” value read?
The value was inactive: -4.61%.

Which “activity change, negative = inhibition” value does the source give for `Nc1ccc(C(=O)NC2CCSc3ccccc32)cc1[N+](=O)[O-]` (configuration not stated) here?
The value was inactive: -2.66%.

With `NC(=O)c1ccc(CN2CCc3ccccc3C2)cc1` as the compound, how does the “activity change, negative = inhibition” value read?
Its value is inactive: 6.3%.

Which “activity change, negative = inhibition” value does the source give for `CCCCCC/C(C)=C1/SC(=S)NC1=O` here?
The value was inactive: -0.358%.

Which “activity change, negative = inhibition” value does the source give for `O=C(NCCc1ccccc1)c1cc2ccccc2oc1=O` here?
Its value is inactive: 2.61%.

For `N#CC1=C(C2CC2)CC(c2ccccc2)C(C#N)=C1N` (configuration not stated), which “activity change, negative = inhibition” value is on record?
Its value is inactive: -1.46%.

For `CCN(C(=O)CSc1nnc(CNc2cccc(OC)c2)n1C1CCCCC1)C1CCS(=O)(=O)C1` (configuration not stated), which “activity change, negative = inhibition” value is on record?
The value was inactive: 0.952%.

Which “activity change, negative = inhibition” value does the source give for `CN(C)S(=O)(=O)c1cccc(-c2nnc(SCc3ccc4c(c3)OCCO4)o2)c1` here?
The value was inactive: 1.15%.

Which “activity change, negative = inhibition” value does the source give for `O=C(NCCc1ccc(Cl)cc1Cl)c1cc([N+](=O)[O-])c[nH]c1=O` here?
Its value is inactive: -4.69%.

Which “activity change, negative = inhibition” value does the source give for `O=C(COc1ccc(Cl)cc1)NCc1nnc(SCC(=O)NC2CCCCC2)o1` here?
The value was inactive: 5.29%.

With `CC(C)c1ccc(OCC(=O)Nc2cccc3c2CCCC3)cc1` as the compound, how does the “activity change, negative = inhibition” value read?
The value was inactive: 4.59%.

Which “activity change, negative = inhibition” value does the source give for `CCOC(=O)c1cc(C(=O)Nc2sc3c(c2C#N)CCCC3)nn1C` here?
Its value is inactive: 3.84%.

With `CC(C)(C)n1ncc2c(=O)n(Cc3ccccc3Br)cnc21` as the compound, how does the “activity change, negative = inhibition” value read?
Its value is inactive: 6.76%.

Which “activity change, negative = inhibition” value does the source give for `Nc1nc(SCc2ccccc2Cl)ns1` here?
The value was inactive: 0.398%.

For `Cc1ccc(F)cc1CNC(=O)c1cc(COc2ccc3ncccc3c2)on1`, which “activity change, negative = inhibition” value is on record?
The value was inactive: -2.37%.

Which “activity change, negative = inhibition” value does the source give for `CC(=O)c1cccc(NS(=O)(=O)c2cc(-c3cnc(C4CC4)o3)ccc2C)c1` here?
The value was inactive: -0.156%.

With `O=C(Nc1cccc(F)c1)c1ccc(CSc2ccccc2)o1` as the compound, how does the “activity change, negative = inhibition” value read?
Its value is inactive: 2.64%.

For `CCOc1cc(NC(=O)C2CC2)c(OCC)cc1NC(=O)c1cccc(F)c1`, which “activity change, negative = inhibition” value is on record?
Its value is inactive: 2.32%.

Which “activity change, negative = inhibition” value does the source give for `COc1ccccc1CNS(=O)(=O)c1cc(-c2cc(C)no2)ccc1C(C)C` here?
The value was inactive: -0.557%.

Which “activity change, negative = inhibition” value does the source give for `CCOC(=O)c1c(NC(=O)/C=C/C(=O)O)sc(C)c1-c1ccc(C)c(C)c1` here?
Its value is inactive: 4.1%.

For `Cc1c(Nc2cc(Cl)c3nonc3c2[N+](=O)[O-])c(=O)n(-c2ccccc2)n1C`, which “activity change, negative = inhibition” value is on record?
Its value is inactive: -9.16%.

For `COc1ccc(-c2csc3ncn(Cc4ccccc4)c(=O)c23)cc1`, which “activity change, negative = inhibition” value is on record?
The value was inactive: 0.99%.

With `O=C(NCc1ccccc1)c1c(Cl)nc(Cl)c(Cl)c1Cl` as the compound, how does the “activity change, negative = inhibition” value read?
Its value is inactive: -11.5%.

Which “activity change, negative = inhibition” value does the source give for `CCOC(=O)c1c(NC(=O)/C=C/C(=O)O)sc(C)c1-c1ccc(Cl)cc1` here?
Its value is inactive: -1.94%.

With `CS(=O)(=O)Cc1ccc(C(=O)Nc2cccc(-c3nc4ccccc4[nH]3)c2)cc1` as the compound, how does the “activity change, negative = inhibition” value read?
Its value is inactive: -7.89%.

With `O=C(Nc1ccc2oc(-c3ccccc3F)nc2c1)c1ccc2c(c1)OCCO2` as the compound, how does the “activity change, negative = inhibition” value read?
The value was inactive: -11%.

Which “activity change, negative = inhibition” value does the source give for `O=c1/c(=C/c2ccc(O)c([N+](=O)[O-])c2)sc2nc3ccccc3n12` here?
Its value is inactive: -4.96%.

For `CS(=O)(=O)c1nc(-c2ccc(Br)cc2)cc(-c2ccccc2)c1C#N`, which “activity change, negative = inhibition” value is on record?
Its value is inactive: 6.28%.

With `CCOC(=O)c1c(S(=O)(=O)NCC(=O)Nc2cccc(C)c2C)c(C)n(C)c1C` as the compound, how does the “activity change, negative = inhibition” value read?
Its value is inactive: 2.95%.

Which “activity change, negative = inhibition” value does the source give for `CCCC(=O)Nc1nnc(CCc2ccccc2)s1` here?
The value was inactive: 5%.

For `CCc1ccccc1NC(=O)C1CCCN(S(=O)(=O)c2ccc3c(c2)CC(C)N3C(C)=O)C1` (configuration not stated), which “activity change, negative = inhibition” value is on record?
The value was inactive: 4.8%.

With `CS(=O)(=O)c1ccc(N2CCN(c3ccccn3)CC2)c([N+](=O)[O-])c1` as the compound, how does the “activity change, negative = inhibition” value read?
The value was inactive: -5.48%.

With `CC1CCN(S(=O)(=O)c2cccc(C(=O)N3CCN(c4ccc(F)cc4)CC3)c2)CC1` as the compound, how does the “activity change, negative = inhibition” value read?
The value was inactive: -5.01%.

Which “activity change, negative = inhibition” value does the source give for `COc1ccccc1C(=O)NCCC(=O)Nc1ccc(OC(F)(F)F)cc1` here?
Its value is inactive: -0.431%.

Which “activity change, negative = inhibition” value does the source give for `CC1=C(C(=O)N2CCCC(N3CCN(c4ccccc4C)CC3)C2)OCCO1` (configuration not stated) here?
The value was inactive: -8.67%.

For `Cc1ccc(CCC(=O)NCc2ccccc2)o1`, which “activity change, negative = inhibition” value is on record?
Its value is inactive: 2.01%.

For `Cc1ccc(S(=O)(=O)Nc2ccc(N=Nc3ccc(O)cc3)cc2)cc1`, which “activity change, negative = inhibition” value is on record?
Its value is inactive: -1.29%.

Which “activity change, negative = inhibition” value does the source give for `CC1=NN(C(N)=S)C(=O)C1N=Nc1ccc(Cl)cc1Cl` (configuration not stated) here?
The value was inactive: -1.36%.

For `COc1ccc(-n2c(SCC(=O)Nc3cc(C)on3)nc3c(c2=O)SCC3)cc1OC`, which “activity change, negative = inhibition” value is on record?
Its value is inactive: 1.65%.
